Test results from paper PMC5891081.
No constants are given. Whether binding was seen depends on the method and setting. In cells and extracts the contact can be indirect. A result given as binding can be weak or reduced; the word gives no strength. Sequences can lack the tags named with a protein.

Substrate: CBP (exogenously overexpressed in HEK293 cells)
Assay: cross-linking + co-IP; DSP-mediated in vivo cross-linking in HEK293 cells overexpressing p300 or CBP and expressing RAD52-HA or GST-HA, with or without doxorubicin; immunoprecipitation with anti-p300 or anti-CBP antibodies

binding: binds
B1: RAD52-HA (protein, UniProt P43351 1-418)
chain: MSGTEEAILGGRDSHPAAGGGSVLCFGQCQYTAEEYQAIQKALRQRLGPEYISSRMAGGGQKVCYIEGHRVINLANEMFGYNGWAHSITQQNVDFVDLNNGKFYVGVCAFVRVQLKDGSYHEDVGYGVSEGLKSKALSLEKARKEAVTDGLKRALRSFGNALGNCILDKDYLRSLNKLPRQLPLEVDLTKAKRQDLEPSVEEARYNSCRPNMALGHPQLQQVTSPSRPSHAVIPADQDCSSRSLSSSAVESEATHQRKLRQKQLQQQFRERMEKQQVRVSTPSAEKSEAAPPAPPVTHSTPVTVSEPLLEKDFLAGVTQELIKTLEDNSEKWAVTPDAGDGVVKPSSRADPAQTSDTLALNNQMVTQNRTPHSVCHQKPQAKSGSWDLQTYSADQRTTGNWESHRKSQDMKKRKYDPS
